No constants are given. Whether binding was seen depends on the method and setting. For some of these results: Binding seen in cells or lysates may run through a third protein. Some entries that bind do so weakly or less than the wild type. Tags and fused reporters may be left off the sequences shown. One block for each binder: values may come before it.
What was measured:
[1] = molecular target: T1, VPS8 (yeast two-hybrid fusion) (human) (UniProt Q8N3P4); test: two-hybrid; yeast AH109 co-transformed with pGADT7 and pGBKT7 constructs; selection on SD-WL, interaction read by growth on SD-WL without adenine or histidine; 48 h at 30 °C
T1 sequence: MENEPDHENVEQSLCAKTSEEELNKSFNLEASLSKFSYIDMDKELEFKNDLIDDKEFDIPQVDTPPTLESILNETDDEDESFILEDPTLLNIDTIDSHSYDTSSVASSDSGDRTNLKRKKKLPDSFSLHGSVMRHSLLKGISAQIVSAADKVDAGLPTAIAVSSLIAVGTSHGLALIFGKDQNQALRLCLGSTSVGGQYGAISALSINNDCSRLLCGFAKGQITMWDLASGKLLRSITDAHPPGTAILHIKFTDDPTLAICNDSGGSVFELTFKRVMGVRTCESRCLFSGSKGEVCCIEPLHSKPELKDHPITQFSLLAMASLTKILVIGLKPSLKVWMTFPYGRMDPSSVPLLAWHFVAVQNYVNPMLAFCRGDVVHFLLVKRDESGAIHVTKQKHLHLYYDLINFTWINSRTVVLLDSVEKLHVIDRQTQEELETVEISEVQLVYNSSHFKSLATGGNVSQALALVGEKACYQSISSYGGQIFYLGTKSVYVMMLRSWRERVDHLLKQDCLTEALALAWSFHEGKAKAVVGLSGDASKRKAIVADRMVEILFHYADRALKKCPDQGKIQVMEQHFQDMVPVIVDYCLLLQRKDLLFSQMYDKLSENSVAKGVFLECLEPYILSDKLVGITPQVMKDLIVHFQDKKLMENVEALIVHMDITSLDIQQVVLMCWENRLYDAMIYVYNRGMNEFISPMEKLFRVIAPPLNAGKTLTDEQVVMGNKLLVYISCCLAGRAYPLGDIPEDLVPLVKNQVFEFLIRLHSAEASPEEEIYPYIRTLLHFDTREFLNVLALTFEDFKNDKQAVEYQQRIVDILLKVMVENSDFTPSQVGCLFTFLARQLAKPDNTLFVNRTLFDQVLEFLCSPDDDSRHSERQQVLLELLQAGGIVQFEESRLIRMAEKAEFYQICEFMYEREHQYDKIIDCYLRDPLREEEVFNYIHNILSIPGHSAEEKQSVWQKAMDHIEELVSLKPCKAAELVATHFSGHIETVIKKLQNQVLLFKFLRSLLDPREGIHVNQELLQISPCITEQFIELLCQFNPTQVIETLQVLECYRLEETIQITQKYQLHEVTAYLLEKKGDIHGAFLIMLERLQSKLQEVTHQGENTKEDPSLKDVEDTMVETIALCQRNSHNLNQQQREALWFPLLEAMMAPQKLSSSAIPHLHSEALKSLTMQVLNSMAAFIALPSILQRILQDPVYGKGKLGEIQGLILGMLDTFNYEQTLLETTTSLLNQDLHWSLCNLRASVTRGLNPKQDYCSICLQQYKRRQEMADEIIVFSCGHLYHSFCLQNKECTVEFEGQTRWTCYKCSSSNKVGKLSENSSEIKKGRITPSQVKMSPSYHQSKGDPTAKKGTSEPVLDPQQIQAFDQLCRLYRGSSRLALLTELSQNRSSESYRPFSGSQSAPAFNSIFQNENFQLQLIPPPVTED

[2] = molecular target: T2, VPS41 (yeast two-hybrid fusion) (human) (UniProt P49754); test: as above
T2 sequence: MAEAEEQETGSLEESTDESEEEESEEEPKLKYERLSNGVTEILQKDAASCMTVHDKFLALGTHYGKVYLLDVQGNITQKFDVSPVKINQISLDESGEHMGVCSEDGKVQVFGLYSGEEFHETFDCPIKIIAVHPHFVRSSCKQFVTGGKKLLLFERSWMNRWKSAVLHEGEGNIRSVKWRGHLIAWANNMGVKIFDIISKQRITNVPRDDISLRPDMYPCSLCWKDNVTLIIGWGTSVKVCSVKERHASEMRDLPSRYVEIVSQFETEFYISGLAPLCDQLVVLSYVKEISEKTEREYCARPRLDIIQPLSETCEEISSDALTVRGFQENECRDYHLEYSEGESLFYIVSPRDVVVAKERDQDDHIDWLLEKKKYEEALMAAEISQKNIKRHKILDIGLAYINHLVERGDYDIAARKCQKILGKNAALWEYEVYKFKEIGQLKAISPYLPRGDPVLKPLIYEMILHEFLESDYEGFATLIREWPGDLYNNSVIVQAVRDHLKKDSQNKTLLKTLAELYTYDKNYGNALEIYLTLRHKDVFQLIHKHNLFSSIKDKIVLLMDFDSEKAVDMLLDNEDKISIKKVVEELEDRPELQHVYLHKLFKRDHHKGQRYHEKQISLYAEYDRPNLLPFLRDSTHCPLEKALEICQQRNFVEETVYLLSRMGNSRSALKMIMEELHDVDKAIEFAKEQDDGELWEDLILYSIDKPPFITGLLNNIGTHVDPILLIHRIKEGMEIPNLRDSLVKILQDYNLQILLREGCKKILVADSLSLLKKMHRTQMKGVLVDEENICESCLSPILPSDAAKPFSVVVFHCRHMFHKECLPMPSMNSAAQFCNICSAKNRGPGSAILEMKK

VPS39-FLAG = molecular target: T3, VPS39-FLAG (human, UniProt Q96JC1 1-886); test: co-IP; anti-FLAG beads on lysates of HEK293 cells overexpressing a FLAG-tagged subunit together with untagged VPS8 or VPS41-HA; eluates analysed by western blot; lysis buffer 50 mM TRIS-HCl pH 7.5, 150 mM NaCl, 1% Triton X-100, 5 mM EDTA; 1.5 h at 4 °C
T3 construct: VPS39, human, HOPS-specific subunit; DNA region encoding the full-length protein fused with a FLAG tag; also called HOPS-specific VPS39; not shown: FLAG, N-terminal, kept
T3 sequence (looked up): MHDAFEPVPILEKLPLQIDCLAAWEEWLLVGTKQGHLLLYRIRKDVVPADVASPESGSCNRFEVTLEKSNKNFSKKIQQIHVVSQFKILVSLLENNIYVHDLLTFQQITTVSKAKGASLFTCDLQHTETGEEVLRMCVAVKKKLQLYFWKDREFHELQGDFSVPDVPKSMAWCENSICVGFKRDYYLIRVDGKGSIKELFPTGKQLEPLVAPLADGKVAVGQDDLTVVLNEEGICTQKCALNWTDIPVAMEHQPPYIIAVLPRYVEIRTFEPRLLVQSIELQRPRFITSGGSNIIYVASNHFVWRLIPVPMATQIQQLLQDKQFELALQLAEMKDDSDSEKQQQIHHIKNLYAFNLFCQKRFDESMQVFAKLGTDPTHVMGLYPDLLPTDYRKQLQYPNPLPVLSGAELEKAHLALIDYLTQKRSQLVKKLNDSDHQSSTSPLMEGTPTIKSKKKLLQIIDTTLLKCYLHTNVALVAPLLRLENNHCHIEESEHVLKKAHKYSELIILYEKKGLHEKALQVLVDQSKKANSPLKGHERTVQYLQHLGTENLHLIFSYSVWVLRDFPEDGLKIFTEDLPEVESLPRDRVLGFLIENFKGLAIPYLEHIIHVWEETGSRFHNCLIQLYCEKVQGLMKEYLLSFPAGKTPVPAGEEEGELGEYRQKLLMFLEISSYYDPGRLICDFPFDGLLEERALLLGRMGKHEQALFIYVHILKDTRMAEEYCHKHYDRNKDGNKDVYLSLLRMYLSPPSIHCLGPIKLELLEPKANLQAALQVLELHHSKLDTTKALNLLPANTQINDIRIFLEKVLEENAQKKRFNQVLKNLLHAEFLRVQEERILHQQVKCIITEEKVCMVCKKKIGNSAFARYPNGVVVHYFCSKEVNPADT

[3] = molecular target: T4, Tgfbrap1-FLAG (human), Q8WUH2; test: as above; conditions: remark: other sources report otherwise
T4 chain: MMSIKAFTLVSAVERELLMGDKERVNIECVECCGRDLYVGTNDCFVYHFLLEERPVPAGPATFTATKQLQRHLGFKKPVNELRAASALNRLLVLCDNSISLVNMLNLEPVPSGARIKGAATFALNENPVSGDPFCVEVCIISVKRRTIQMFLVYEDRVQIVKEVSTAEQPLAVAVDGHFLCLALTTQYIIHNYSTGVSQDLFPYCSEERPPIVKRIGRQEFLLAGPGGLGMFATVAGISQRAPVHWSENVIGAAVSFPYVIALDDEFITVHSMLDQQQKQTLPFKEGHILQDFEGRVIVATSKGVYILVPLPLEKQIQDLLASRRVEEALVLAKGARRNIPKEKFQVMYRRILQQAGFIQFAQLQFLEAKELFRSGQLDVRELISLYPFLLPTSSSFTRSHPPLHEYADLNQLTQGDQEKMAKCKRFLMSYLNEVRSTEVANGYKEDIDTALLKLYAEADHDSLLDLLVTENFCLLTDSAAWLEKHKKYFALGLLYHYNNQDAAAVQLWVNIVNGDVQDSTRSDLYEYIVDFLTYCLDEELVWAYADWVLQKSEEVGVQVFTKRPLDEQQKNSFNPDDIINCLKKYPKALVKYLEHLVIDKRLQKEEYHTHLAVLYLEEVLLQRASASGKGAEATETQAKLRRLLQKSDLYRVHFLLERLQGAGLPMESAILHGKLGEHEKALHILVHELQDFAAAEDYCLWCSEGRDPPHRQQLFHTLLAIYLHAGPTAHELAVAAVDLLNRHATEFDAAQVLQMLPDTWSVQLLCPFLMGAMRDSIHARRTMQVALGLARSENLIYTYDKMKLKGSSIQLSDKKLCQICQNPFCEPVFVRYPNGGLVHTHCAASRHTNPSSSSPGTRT

binding [1]: binds
binding [2]: binds
B1: VPS18FL (yeast two-hybrid fusion) (protein, UniProt Q9P253 1-973)
chain: MASILDEYENSLSRSAVLQPGCPSVGIPHSGYVNAQLEKEVPIFTKQRIDFTPSERITSLVVSSNQLCMSLGKDTLLRIDLGKANEPNHVELGRKDDAKVHKMFLDHTGSHLLIALSSTEVLYVNRNGQKVRPLARWKGQLVESVGWNKALGTESSTGPILVGTAQGHIFEAELSASEGGLFGPAPDLYFRPLYVLNEEGGPAPVCSLEAERGPDGRSFVIATTRQRLFQFIGRAAEGAEAQGFSGLFAAYTDHPPPFREFPSNLGYSELAFYTPKLRSAPRAFAWMMGDGVLYGALDCGRPDSLLSEERVWEYPEGVGPGASPPLAIVLTQFHFLLLLADRVEAVCTLTGQVVLRDHFLEKFGPLKHMVKDSSTGQLWAYTERAVFRYHVQREARDVWRTYLDMNRFDLAKEYCRERPDCLDTVLAREADFCFRQRRYLESARCYALTQSYFEEIALKFLEARQEEALAEFLQRKLASLKPAERTQATLLTTWLTELYLSRLGALQGDPEALTLYRETKECFRTFLSSPRHKEWLFASRASIHELLASHGDTEHMVYFAVIMQDYERVVAYHCQHEAYEEALAVLARHRDPQLFYKFSPILIRHIPRQLVDAWIEMGSRLDARQLIPALVNYSQGGEVQQVSQAIRYMEFCVNVLGETEQAIHNYLLSLYARGRPDSLLAYLEQAGASPHRVHYDLKYALRLCAEHGHHRACVHVYKVLELYEEAVDLALQVDVDLAKQCADLPEEDEELRKKLWLKIARHVVQEEEDVQTAMACLASCPLLKIEDVLPFFPDFVTIDHFKEAICSSLKAYNHHIQELQREMEEATASAQRIRRDLQELRGRYGTVEPQDKCATCDFPLLNRPFYLFLCGHMFHADCLLQAVRPGLPAYKQARLEELQRKLGAAPPPAKGSARAKEAEGGAATAGPSREQLKADLDELVAAECVYCGELMIRSIDRPFIDPQRYEEEQLSWL

binding (VPS39-FLAG): binds
B2: VPS41-HA (protein, UniProt P49754 1-854)
chain: T2 sequence

binding [3]: no binding
B3: VPS41-HA, P49754 1-854 (protein)
chain: T2 sequence

Reference: paper PMC11066007, “CORVET-specific subunit levels determine the balance between HOPS/CORVET endosomal tethering complexes” (Scientific Reports, 2024)
